# The supplement of paper PMC12823440, “Inhibitors supercharge kinase turnover through native proteolytic circuits” (Nature, 2025)
# Sequences of proteins named here, by UniProt entry; tags and fusion partners are left off. A change or cut given only in a name is not applied to a line headed by its entry.
# UniProt O15530: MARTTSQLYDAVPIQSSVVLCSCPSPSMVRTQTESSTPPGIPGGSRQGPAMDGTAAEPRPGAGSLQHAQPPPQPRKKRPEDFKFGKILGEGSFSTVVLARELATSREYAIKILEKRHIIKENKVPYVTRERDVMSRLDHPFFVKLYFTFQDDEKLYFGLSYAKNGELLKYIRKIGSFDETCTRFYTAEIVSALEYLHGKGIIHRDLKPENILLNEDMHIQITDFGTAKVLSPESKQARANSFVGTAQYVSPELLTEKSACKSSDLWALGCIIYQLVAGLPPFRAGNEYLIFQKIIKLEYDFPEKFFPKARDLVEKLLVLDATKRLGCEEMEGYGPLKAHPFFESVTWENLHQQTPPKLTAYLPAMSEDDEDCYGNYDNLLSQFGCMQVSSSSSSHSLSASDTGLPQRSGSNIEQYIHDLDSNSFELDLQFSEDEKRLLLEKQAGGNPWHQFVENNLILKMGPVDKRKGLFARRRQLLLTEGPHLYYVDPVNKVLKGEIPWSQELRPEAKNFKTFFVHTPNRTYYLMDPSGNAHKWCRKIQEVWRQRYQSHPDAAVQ
# UniProt P42356, whole entry, looked up: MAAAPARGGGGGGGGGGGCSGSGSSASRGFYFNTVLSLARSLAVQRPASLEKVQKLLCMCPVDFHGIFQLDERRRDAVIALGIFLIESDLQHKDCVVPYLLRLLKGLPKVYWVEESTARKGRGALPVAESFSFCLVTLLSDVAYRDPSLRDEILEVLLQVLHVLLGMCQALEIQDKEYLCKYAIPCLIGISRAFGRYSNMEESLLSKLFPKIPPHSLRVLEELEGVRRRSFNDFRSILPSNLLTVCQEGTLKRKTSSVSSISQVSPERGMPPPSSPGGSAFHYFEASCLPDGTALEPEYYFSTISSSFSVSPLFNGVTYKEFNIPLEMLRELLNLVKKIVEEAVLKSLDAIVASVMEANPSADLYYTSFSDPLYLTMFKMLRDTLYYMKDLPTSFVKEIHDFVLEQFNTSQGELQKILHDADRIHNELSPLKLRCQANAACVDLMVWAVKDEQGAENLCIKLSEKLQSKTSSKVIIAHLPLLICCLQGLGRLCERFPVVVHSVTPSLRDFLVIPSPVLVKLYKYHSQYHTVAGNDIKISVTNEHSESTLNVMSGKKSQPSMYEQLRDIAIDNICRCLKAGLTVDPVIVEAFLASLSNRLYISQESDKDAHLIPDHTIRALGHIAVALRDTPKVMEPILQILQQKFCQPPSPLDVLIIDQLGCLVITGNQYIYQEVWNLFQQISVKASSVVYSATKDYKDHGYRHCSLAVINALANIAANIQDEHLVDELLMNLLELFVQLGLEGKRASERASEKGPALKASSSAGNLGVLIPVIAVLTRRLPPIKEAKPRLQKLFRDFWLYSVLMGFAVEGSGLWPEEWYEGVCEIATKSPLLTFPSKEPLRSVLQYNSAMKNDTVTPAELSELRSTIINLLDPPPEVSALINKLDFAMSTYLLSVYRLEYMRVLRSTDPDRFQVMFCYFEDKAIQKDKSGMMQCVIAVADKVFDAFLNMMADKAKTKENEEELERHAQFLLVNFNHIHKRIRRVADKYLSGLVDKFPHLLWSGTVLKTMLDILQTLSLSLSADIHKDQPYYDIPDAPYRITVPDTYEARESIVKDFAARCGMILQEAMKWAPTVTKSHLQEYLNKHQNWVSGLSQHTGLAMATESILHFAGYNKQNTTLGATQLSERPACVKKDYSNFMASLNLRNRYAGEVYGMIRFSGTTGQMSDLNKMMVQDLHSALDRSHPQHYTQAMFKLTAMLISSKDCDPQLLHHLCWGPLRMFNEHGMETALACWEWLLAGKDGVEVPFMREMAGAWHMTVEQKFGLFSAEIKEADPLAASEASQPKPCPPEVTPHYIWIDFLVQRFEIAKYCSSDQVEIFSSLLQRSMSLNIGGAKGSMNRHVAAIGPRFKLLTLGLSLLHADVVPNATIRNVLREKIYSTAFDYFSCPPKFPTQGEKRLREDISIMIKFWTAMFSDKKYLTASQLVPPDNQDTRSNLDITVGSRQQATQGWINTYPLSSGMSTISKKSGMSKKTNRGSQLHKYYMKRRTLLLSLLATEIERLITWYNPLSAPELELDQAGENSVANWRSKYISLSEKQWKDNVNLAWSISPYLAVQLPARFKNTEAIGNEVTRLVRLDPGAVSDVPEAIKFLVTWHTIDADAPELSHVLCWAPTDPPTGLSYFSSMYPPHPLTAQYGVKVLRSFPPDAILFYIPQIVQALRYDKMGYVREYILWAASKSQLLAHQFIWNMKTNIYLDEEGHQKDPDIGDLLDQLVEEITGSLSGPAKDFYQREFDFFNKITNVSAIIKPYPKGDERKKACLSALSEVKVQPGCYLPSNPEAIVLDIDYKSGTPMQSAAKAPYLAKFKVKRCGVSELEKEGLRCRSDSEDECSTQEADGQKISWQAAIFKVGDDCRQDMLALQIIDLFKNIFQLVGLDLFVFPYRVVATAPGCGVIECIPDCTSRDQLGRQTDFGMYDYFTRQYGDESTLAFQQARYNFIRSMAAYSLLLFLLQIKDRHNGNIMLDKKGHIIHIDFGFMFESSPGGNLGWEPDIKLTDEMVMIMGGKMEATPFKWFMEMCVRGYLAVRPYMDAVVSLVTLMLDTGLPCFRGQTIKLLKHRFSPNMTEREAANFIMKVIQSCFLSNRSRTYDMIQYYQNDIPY
# UniProt Q9UBF8: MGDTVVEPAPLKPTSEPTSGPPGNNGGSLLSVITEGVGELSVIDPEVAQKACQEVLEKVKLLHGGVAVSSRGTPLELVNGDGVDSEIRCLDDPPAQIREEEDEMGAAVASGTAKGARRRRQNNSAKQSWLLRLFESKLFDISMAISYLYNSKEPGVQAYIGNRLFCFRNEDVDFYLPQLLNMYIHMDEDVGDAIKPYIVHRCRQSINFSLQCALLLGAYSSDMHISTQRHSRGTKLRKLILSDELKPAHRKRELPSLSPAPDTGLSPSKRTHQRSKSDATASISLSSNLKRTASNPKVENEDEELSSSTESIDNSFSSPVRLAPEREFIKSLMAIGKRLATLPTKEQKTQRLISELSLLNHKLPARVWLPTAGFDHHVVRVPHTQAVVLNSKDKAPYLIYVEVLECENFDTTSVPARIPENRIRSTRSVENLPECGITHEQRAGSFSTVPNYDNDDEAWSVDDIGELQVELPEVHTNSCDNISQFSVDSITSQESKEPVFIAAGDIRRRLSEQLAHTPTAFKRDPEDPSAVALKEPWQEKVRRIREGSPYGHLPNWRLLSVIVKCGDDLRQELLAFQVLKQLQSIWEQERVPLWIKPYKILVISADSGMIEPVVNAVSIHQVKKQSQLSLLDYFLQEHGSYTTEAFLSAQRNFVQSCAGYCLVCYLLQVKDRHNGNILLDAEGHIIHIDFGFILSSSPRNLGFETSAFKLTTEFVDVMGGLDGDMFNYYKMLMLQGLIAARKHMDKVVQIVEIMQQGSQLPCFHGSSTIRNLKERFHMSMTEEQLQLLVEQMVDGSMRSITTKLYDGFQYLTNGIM
# UniProt Q05397, whole entry, looked up: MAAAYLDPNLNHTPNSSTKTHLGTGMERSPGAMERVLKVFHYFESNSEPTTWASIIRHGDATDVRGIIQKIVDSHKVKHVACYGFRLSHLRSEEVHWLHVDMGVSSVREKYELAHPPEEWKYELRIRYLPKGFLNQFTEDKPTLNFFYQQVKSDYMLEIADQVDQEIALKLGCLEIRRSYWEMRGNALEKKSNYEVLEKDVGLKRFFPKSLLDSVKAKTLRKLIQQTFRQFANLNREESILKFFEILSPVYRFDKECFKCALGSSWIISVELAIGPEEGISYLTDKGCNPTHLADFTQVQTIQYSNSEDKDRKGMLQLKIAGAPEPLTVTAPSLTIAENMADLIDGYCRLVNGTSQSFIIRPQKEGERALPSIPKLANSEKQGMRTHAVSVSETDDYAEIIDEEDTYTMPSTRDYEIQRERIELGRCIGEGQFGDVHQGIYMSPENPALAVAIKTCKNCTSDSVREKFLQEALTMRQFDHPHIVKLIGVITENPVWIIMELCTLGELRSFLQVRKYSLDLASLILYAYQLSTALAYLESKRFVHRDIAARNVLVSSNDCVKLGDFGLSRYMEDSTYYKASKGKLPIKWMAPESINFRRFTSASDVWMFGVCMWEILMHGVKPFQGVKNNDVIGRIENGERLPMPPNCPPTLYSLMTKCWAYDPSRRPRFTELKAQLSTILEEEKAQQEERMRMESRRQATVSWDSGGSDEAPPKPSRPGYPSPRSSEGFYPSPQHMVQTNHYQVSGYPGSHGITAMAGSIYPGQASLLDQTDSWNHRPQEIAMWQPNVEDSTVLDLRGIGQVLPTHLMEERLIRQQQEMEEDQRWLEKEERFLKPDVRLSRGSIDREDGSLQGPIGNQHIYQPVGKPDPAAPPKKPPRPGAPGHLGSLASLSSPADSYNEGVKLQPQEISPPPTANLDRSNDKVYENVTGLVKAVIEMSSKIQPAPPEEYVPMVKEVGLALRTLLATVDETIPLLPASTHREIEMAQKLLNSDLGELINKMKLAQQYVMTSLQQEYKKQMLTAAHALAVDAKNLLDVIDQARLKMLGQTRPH
# UniProt Q9BRS2: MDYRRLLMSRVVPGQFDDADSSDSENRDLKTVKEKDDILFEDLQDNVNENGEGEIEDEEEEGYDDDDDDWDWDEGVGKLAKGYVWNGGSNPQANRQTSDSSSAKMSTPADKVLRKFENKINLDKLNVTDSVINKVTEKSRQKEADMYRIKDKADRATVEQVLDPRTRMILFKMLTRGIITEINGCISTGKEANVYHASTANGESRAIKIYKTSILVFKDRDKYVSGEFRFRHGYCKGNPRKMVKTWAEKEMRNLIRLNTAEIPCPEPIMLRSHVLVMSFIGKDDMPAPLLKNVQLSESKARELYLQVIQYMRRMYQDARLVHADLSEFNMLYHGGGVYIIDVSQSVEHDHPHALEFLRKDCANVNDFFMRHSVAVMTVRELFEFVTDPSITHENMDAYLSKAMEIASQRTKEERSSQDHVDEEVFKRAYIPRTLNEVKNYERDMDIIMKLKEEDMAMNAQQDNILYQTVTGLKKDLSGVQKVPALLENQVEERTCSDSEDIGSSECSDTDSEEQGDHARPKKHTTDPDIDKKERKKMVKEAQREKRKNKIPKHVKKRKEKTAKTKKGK
# UniProt Q9NYA1, whole entry: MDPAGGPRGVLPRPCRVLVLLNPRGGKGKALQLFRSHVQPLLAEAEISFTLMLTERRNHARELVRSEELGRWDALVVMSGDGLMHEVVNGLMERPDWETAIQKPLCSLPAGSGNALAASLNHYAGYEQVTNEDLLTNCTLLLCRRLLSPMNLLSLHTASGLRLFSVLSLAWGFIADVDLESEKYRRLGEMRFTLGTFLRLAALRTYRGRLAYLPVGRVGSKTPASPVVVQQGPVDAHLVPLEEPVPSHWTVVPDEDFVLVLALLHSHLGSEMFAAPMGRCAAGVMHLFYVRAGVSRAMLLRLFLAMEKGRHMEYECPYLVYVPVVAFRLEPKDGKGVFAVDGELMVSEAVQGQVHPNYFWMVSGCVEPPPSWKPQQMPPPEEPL
# UniProt Q9Y6E0: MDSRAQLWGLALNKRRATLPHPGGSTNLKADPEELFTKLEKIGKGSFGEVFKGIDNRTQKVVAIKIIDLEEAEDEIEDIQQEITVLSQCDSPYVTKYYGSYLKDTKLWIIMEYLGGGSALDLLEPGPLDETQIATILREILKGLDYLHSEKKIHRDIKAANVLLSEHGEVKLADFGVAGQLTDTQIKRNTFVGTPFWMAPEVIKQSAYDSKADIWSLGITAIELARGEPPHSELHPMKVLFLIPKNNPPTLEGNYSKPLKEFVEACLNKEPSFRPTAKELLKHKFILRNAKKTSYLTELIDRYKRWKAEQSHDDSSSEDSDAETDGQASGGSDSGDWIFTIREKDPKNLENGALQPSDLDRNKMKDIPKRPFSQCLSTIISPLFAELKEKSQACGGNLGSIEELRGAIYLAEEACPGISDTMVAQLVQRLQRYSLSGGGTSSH
# Counter-ions that a name gives are not always drawn. The list shows a part of the results. Hit calls seldom repeat between salt and free forms of one compound.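 Kinases were expressed as nanoluciferase fusions in K562 cells and luminescence was read every 4 h between 2 and 18 h as percent of control, DMSO set to 100% and a positive control to 0%. A time point counts as decreased when the signal drops significantly (2 sigma). The hit call is the authors' own, does not follow from the count of time points alone, and its rule is not shown.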
# Key:
# Assay in all cases: kinase-Nluc reporter destabilization hit call (1 = scored as downregulated) (binary); higher = compound decreases kinase abundance
# Conditions in all cases: K562; 2-18 h
# PDPK1 = PDPK1 (UniProt O15530)
# PIK4CA = PIK4CA (UniProt P42356)
# PIK4CB = PIK4CB (UniProt Q9UBF8)
# PLK1 = PLK1 (UniProt P53350)
# PRKAA1 = PRKAA1 (UniProt Q13131)
# PRKCA = PRKCA (UniProt P17252)
# PTK2 = PTK2 (UniProt Q05397)
# PTK2B = PTK2B (UniProt Q14289)
# RAF1 = RAF1 (UniProt P04049)
# [1] = target: RAF1_S257L (clone: RAF1_mut) (UniProt P04049)
# RET = RET (UniProt P07949)
# [2] = target: RET_M918T (clone: RET_mut) (UniProt P07949)
# RIOK1 = RIOK1 (UniProt Q9BRS2)
# RIPK1 = RIPK1 (UniProt Q13546)
# RIPK2 = RIPK2 (UniProt O43353)
# ROR2 = ROR2 (UniProt Q01974)
# RPS6KA1 = RPS6KA1 (UniProt Q15418)
# SPHK1 = SPHK1 (UniProt Q9NYA1)
# SRC = SRC (UniProt P12931)
# STK24 = STK24 (UniProt Q9Y6E0)
Structure (SMILES),kinase-Nluc reporter destabilization hit call (PDPK1),kinase-Nluc reporter destabilization hit call (PIK4CA),kinase-Nluc reporter destabilization hit call (PIK4CB),kinase-Nluc reporter destabilization hit call (PLK1),kinase-Nluc reporter destabilization hit call (PRKAA1),kinase-Nluc reporter destabilization hit call (PRKCA),kinase-Nluc reporter destabilization hit call (PTK2),kinase-Nluc reporter destabilization hit call (PTK2B),kinase-Nluc reporter destabilization hit call (RAF1),kinase-Nluc reporter destabilization hit call [1],kinase-Nluc reporter destabilization hit call (RET),kinase-Nluc reporter destabilization hit call [2],kinase-Nluc reporter destabilization hit call (RIOK1),kinase-Nluc reporter destabilization hit call (RIPK1),kinase-Nluc reporter destabilization hit call (RIPK2),kinase-Nluc reporter destabilization hit call (ROR2),kinase-Nluc reporter destabilization hit call (RPS6KA1),kinase-Nluc reporter destabilization hit call (SPHK1),kinase-Nluc reporter destabilization hit call (SRC),kinase-Nluc reporter destabilization hit call (STK24)
Cc1cccc2c3c(ccc12)C(=O)C1=C(OCC1C)C3=O (stereo not given) [Dihydroisotanshinone I] (2.5 µM),inactive: 0,inactive: 0,inactive: 0,inactive: 0,inactive: 0,inactive: 0,inactive: 0,inactive: 0,inactive: 0,inactive: 0,inactive: 0,inactive: 0,inactive: 0,inactive: 0,inactive: 0,inactive: 0,inactive: 0,inactive: 0,inactive: 0,inactive: 0
COc1cc(/C=C/C(=O)N2CCC=CC2=O)cc(OC)c1OC [Piperlongumine] (2.5 µM),inactive: 0,inactive: 0,active: 1,inactive: 0,inactive: 0,inactive: 0,inactive: 0,inactive: 0,inactive: 0,active: 1,inactive: 0,inactive: 0,inactive: 0,active: 1,inactive: 0,inactive: 0,inactive: 0,inactive: 0,inactive: 0,inactive: 0
COc1ccc(-c2c(C)nn3c(NCCN4CCOCC4)cc(C)nc23)cc1OC (10 µM),inactive: 0,inactive: 0,inactive: 0,inactive: 0,inactive: 0,inactive: 0,inactive: 0,inactive: 0,inactive: 0,inactive: 0,inactive: 0,inactive: 0,inactive: 0,inactive: 0,inactive: 0,inactive: 0,inactive: 0,inactive: 0,inactive: 0,inactive: 0
Nc1cccc(-c2cc3c(Oc4cccc(O)c4)ncnc3[nH]2)c1 (10 µM),inactive: 0,inactive: 0,inactive: 0,inactive: 0,inactive: 0,inactive: 0,inactive: 0,inactive: 0,inactive: 0,inactive: 0,inactive: 0,inactive: 0,inactive: 0,inactive: 0,inactive: 0,inactive: 0,inactive: 0,inactive: 0,inactive: 0,inactive: 0
O=C1NC(=Nc2c(Cl)cccc2Cl)S/C1=C\c1ccc2nccnc2c1 (2.5 µM),inactive: 0,inactive: 0,inactive: 0,inactive: 0,inactive: 0,inactive: 0,inactive: 0,inactive: 0,inactive: 0,inactive: 0,inactive: 0,inactive: 0,inactive: 0,inactive: 0,inactive: 0,inactive: 0,inactive: 0,inactive: 0,inactive: 0,inactive: 0
CC(C)(C[C@H](N)C(=O)O)C(F)F [NV-5138 (hydrochloride)] (10 µM),inactive: 0,inactive: 0,inactive: 0,inactive: 0,inactive: 0,inactive: 0,inactive: 0,inactive: 0,inactive: 0,inactive: 0,inactive: 0,inactive: 0,inactive: 0,inactive: 0,inactive: 0,inactive: 0,inactive: 0,inactive: 0,inactive: 0,inactive: 0
CN(C)S(=O)(=O)c1ccc2c(c1)/C(=C/c1cc3c([nH]1)CCCC3)C(=O)N2 (2.5 µM),inactive: 0,inactive: 0,inactive: 0,inactive: 0,inactive: 0,inactive: 0,inactive: 0,inactive: 0,inactive: 0,inactive: 0,inactive: 0,inactive: 0,inactive: 0,inactive: 0,inactive: 0,inactive: 0,inactive: 0,inactive: 0,inactive: 0,inactive: 0
C[C@@H]1COCCN1c1nc(-c2cnc(N)cc2C(F)F)nc(N2[C@H](C)COC[C@@H]2C)n1 (2.5 µM),inactive: 0,inactive: 0,inactive: 0,inactive: 0,inactive: 0,inactive: 0,inactive: 0,inactive: 0,inactive: 0,inactive: 0,inactive: 0,inactive: 0,inactive: 0,inactive: 0,inactive: 0,inactive: 0,inactive: 0,inactive: 0,inactive: 0,inactive: 0
NC(=O)N1CCC(CC(=O)N2CCC([C@H]3c4ncc(Br)cc4CCc4cc(Cl)cc(Br)c43)CC2)CC1 [Lonafarnib] (2.5 µM),inactive: 0,inactive: 0,inactive: 0,inactive: 0,inactive: 0,inactive: 0,inactive: 0,inactive: 0,inactive: 0,inactive: 0,inactive: 0,inactive: 0,inactive: 0,inactive: 0,inactive: 0,inactive: 0,inactive: 0,inactive: 0,inactive: 0,inactive: 0
O=C(Nc1nc(=O)n(Cc2ccc(Cl)cc2)s1)c1ccc(Cl)cc1 (10 µM),inactive: 0,inactive: 0,inactive: 0,inactive: 0,inactive: 0,inactive: 0,inactive: 0,inactive: 0,inactive: 0,inactive: 0,inactive: 0,inactive: 0,inactive: 0,inactive: 0,inactive: 0,inactive: 0,inactive: 0,inactive: 0,inactive: 0,inactive: 0
O=c1[nH]c(C2CCCN2)nc2c1oc1ccc(Cl)cc12 (stereo not given) [XL413 (hydrochloride)] (10 µM),inactive: 0,inactive: 0,inactive: 0,inactive: 0,inactive: 0,inactive: 0,inactive: 0,inactive: 0,inactive: 0,inactive: 0,inactive: 0,inactive: 0,inactive: 0,inactive: 0,inactive: 0,inactive: 0,inactive: 0,inactive: 0,inactive: 0,inactive: 0
O=C1NC(=O)/C(=C/c2ccc3nccc(-c4ccncc4)c3c2)S1 (10 µM),inactive: 0,inactive: 0,inactive: 0,inactive: 0,inactive: 0,inactive: 0,inactive: 0,inactive: 0,inactive: 0,inactive: 0,inactive: 0,inactive: 0,inactive: 0,inactive: 0,inactive: 0,inactive: 0,inactive: 0,inactive: 0,inactive: 0,inactive: 0
c1ccc(-c2nc3c(c(-n4ccc5cnccc54)n2)CCC3)nc1 (10 µM),inactive: 0,inactive: 0,inactive: 0,inactive: 0,inactive: 0,inactive: 0,inactive: 0,inactive: 0,inactive: 0,inactive: 0,inactive: 0,inactive: 0,inactive: 0,inactive: 0,inactive: 0,inactive: 0,inactive: 0,inactive: 0,inactive: 0,inactive: 0
O=C(O)c1cccc(CN2C(=O)/C(=C(\c3ccccc3)c3ccc(Cl)cc3)c3ccccc32)c1 (2.5 µM),inactive: 0,inactive: 0,inactive: 0,inactive: 0,inactive: 0,inactive: 0,inactive: 0,inactive: 0,inactive: 0,inactive: 0,inactive: 0,inactive: 0,inactive: 0,inactive: 0,inactive: 0,inactive: 0,inactive: 0,inactive: 0,inactive: 0,inactive: 0
O=C(N[C@@H](C1CC1)C(F)(F)F)c1cc(-c2cnn3cc(-c4ccc(F)cc4)cnc23)cs1 (10 µM),inactive: 0,inactive: 0,inactive: 0,inactive: 0,inactive: 0,inactive: 0,inactive: 0,inactive: 0,inactive: 0,inactive: 0,inactive: 0,inactive: 0,inactive: 0,inactive: 0,inactive: 0,inactive: 0,inactive: 0,inactive: 0,inactive: 0,inactive: 0
Cc1cc(-c2ccnc(Nc3cnn(C)c3)n2)ccc1CNC(=O)N1CC(OC(C)C)C1 (10 µM),inactive: 0,inactive: 0,inactive: 0,inactive: 0,inactive: 0,inactive: 0,inactive: 0,inactive: 0,inactive: 0,inactive: 0,inactive: 0,inactive: 0,inactive: 0,inactive: 0,inactive: 0,inactive: 0,inactive: 0,inactive: 0,inactive: 0,inactive: 0
C#Cc1cccc(Nc2ncnc3cc(OC)c(OCCCCCCC(=O)NO)cc23)c1 (2.5 µM),inactive: 0,inactive: 0,inactive: 0,inactive: 0,inactive: 0,inactive: 0,inactive: 0,inactive: 0,inactive: 0,inactive: 0,inactive: 0,inactive: 0,inactive: 0,inactive: 0,inactive: 0,inactive: 0,inactive: 0,inactive: 0,inactive: 0,inactive: 0
CS(=O)(=O)c1ccc(-c2cnc(N)c(-c3ccc(C(F)(F)F)nc3)c2)cc1 (10 µM),inactive: 0,inactive: 0,inactive: 0,inactive: 0,inactive: 0,inactive: 0,inactive: 0,inactive: 0,inactive: 0,inactive: 0,inactive: 0,inactive: 0,inactive: 0,inactive: 0,inactive: 0,inactive: 0,inactive: 0,inactive: 0,inactive: 0,inactive: 0

# Arranged by formula weight (ascending): three of the compounds above.
Structure (SMILES),kinase-Nluc reporter destabilization hit call (PDPK1),kinase-Nluc reporter destabilization hit call (PIK4CA),kinase-Nluc reporter destabilization hit call (PIK4CB),kinase-Nluc reporter destabilization hit call (PLK1),kinase-Nluc reporter destabilization hit call (PRKAA1),kinase-Nluc reporter destabilization hit call (PRKCA),kinase-Nluc reporter destabilization hit call (PTK2),kinase-Nluc reporter destabilization hit call (PTK2B),kinase-Nluc reporter destabilization hit call (RAF1),kinase-Nluc reporter destabilization hit call [1],kinase-Nluc reporter destabilization hit call (RET),kinase-Nluc reporter destabilization hit call [2],kinase-Nluc reporter destabilization hit call (RIOK1),kinase-Nluc reporter destabilization hit call (RIPK1),kinase-Nluc reporter destabilization hit call (RIPK2),kinase-Nluc reporter destabilization hit call (ROR2),kinase-Nluc reporter destabilization hit call (RPS6KA1),kinase-Nluc reporter destabilization hit call (SPHK1),kinase-Nluc reporter destabilization hit call (SRC),kinase-Nluc reporter destabilization hit call (STK24)
O=C1NC(=Nc2c(Cl)cccc2Cl)S/C1=C\c1ccc2nccnc2c1 (2.5 µM),inactive: 0,inactive: 0,inactive: 0,inactive: 0,inactive: 0,inactive: 0,inactive: 0,inactive: 0,inactive: 0,inactive: 0,inactive: 0,inactive: 0,inactive: 0,inactive: 0,inactive: 0,inactive: 0,inactive: 0,inactive: 0,inactive: 0,inactive: 0
COc1ccc(-c2c(C)nn3c(NCCN4CCOCC4)cc(C)nc23)cc1OC (10 µM),inactive: 0,inactive: 0,inactive: 0,inactive: 0,inactive: 0,inactive: 0,inactive: 0,inactive: 0,inactive: 0,inactive: 0,inactive: 0,inactive: 0,inactive: 0,inactive: 0,inactive: 0,inactive: 0,inactive: 0,inactive: 0,inactive: 0,inactive: 0
Cc1cc(-c2ccnc(Nc3cnn(C)c3)n2)ccc1CNC(=O)N1CC(OC(C)C)C1 (10 µM),inactive: 0,inactive: 0,inactive: 0,inactive: 0,inactive: 0,inactive: 0,inactive: 0,inactive: 0,inactive: 0,inactive: 0,inactive: 0,inactive: 0,inactive: 0,inactive: 0,inactive: 0,inactive: 0,inactive: 0,inactive: 0,inactive: 0,inactive: 0
